Test: Limulus Amoebocyte Lysate Assay for endotoxin associated with NDMPs
Design: species or system mice
Settings: endotoxin associated with NDMPs generated by the treatment

First: lipopolysaccharide [LPS]
Second: peptidoglycan [PepG]
The “[Endotoxin]” value of the first is higher: 131.9 ± 25.7 EU/mL for the first, 37.4 ± 31 EU/mL for the second.

For thioglycolate [3% TGA], the “[Endotoxin]” value was 26.4 ± 16.5 EU/mL.

From patent publication US10073097B2, “Diagnostic assays and methods of treating pneumonia, sepsis and systemic inflammatory response syndrome” (priority 2012, dated 2018)
